{
  "sequences": {"note": "Chains of the proteins cited; added tags and fusions are not shown.", "UniProt Q70EL1": "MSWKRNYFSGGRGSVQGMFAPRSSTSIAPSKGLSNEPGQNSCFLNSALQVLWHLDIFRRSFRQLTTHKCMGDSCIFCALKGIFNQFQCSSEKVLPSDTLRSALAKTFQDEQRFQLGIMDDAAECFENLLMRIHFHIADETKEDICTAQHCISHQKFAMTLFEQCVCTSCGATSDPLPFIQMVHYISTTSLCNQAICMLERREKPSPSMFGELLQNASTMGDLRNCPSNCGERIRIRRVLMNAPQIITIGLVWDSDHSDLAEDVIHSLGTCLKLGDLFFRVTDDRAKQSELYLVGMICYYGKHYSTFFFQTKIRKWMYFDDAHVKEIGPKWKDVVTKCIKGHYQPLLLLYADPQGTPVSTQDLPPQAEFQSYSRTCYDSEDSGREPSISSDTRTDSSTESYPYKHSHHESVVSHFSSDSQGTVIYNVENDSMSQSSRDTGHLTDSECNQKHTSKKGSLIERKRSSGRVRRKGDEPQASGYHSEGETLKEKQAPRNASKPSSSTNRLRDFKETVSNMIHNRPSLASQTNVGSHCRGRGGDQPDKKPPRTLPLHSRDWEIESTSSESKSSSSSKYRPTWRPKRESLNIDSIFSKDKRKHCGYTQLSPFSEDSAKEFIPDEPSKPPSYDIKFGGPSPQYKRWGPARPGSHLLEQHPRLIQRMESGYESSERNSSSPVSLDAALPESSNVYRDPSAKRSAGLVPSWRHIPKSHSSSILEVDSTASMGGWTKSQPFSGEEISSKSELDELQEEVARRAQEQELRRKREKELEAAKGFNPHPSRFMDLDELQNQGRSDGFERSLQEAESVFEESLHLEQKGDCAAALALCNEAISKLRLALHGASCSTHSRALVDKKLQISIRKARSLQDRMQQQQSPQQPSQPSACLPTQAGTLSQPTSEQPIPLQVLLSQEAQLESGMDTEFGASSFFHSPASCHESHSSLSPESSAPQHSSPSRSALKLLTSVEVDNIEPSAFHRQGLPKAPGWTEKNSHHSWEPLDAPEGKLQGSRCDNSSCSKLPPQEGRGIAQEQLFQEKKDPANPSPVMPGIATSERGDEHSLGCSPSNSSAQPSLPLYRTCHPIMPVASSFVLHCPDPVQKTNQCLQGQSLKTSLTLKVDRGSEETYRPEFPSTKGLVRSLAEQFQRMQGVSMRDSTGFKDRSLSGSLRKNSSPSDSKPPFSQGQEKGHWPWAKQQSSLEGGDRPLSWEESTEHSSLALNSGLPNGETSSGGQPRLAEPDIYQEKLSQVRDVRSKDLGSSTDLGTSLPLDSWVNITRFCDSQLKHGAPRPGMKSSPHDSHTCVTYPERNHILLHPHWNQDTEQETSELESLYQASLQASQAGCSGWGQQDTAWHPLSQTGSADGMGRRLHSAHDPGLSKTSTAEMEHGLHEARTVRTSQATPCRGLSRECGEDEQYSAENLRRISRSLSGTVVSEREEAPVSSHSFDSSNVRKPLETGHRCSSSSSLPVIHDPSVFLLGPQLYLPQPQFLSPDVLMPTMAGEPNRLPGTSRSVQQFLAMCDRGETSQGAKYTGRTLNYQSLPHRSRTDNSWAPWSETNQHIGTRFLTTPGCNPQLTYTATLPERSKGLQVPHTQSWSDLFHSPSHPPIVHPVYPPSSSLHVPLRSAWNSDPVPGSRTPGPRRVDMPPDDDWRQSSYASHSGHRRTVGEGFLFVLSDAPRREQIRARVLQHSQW"},
  "source": "paper PMC13248803",
  "molecular_target": "T1, Forkhead box A2 (FOXA2) (human (endogenous in A549)) (UniProt Q9Y261)",
  "T1 sequence": "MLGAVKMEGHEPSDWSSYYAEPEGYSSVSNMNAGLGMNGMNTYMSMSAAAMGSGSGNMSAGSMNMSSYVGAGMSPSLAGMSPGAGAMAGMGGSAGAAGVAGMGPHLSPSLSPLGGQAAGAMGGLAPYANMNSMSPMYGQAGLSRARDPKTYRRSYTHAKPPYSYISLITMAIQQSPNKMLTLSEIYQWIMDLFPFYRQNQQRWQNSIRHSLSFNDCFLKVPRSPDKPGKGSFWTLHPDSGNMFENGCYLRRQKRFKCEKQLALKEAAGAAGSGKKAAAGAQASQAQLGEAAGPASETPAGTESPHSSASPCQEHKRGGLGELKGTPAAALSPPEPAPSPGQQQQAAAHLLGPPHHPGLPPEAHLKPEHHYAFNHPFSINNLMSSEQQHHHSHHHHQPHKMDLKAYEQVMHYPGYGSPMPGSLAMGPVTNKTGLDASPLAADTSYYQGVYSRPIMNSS",
  "test": "co-IP; A549 cells lysed in NP-40 buffer with protease inhibitors; precleared lysate incubated overnight at 4°C with anti-USP54, anti-FOXA2 or control IgG; protein G-Sepharose; four washes with lysis buffer; western blot",
  "note": "Results are given in words; binding and its absence hold for the method and conditions named. In cells and extracts the contact can be indirect. Some entries that bind do so weakly or less than the wild type.",
  "data": [
    {"substance": "Ubiquitin-specific protease 54 (USP54) (from UniProt Q70EL1 1-1684) (enzyme)", "values": [
      {"measurement": "binding", "value": "binds"}
    ]}
  ]
}
